Reference: PubChem BioAssay AID651814 (National Center for Advancing Translational Sciences (NCATS), 2012)
Values joined by “and” are separate entries in the source; they are usually repeats but may differ in a detail not shown here. Identical values can stand only once. Hit rate of the full screen: of about 2,100 compounds, about 590 (28%) were called active. The shares of active, inactive and inconclusive entries below differ from those in the screen. The call rests on the fitted dose curve; in most records, active means well fitted inhibition curve with a large enough effect; inconclusive means small, poorly fitted or top-dose-only effect; inactive means flat fitted curve, though single readings scatter. Potencies beside an inconclusive call are fits to weak or partial responses and may not hold up.

Sequences of proteins named here, by UniProt entry; tags and fusion partners are left off. A change or cut given only in a name is not applied to a line headed by its entry.
UniProt Q8IUX4: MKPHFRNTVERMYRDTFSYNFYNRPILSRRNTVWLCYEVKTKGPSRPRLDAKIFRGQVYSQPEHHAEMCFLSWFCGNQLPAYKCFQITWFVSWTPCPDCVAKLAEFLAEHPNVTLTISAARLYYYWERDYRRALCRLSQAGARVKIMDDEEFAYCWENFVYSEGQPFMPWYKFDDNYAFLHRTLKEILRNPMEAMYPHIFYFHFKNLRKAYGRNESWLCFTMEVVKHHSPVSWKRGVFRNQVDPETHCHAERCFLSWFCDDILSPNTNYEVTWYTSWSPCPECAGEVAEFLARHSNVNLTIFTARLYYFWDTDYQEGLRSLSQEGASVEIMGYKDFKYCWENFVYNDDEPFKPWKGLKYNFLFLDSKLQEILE

Target: DNA dC->dU-editing enzyme APOBEC-3F (Homo sapiens) (UniProt Q8IUX4)
Assay: qHTS for inhibitors of Vif-A3F interactions: Cherry picks; further: nearly all actives have a fitted effect of over 70% in size;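 on max response: % of control where 0% means no effect; active compounds raise eYFP fluorescence by blocking Vif-driven A3F loss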
Conditions: HeLa A3F-eYFP + Vif (tagged APOBEC3F with the HIV-1 protein that degrades it), eYFP fluorescence, 24 h
In short: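 Read-out: yellow fluorescence (ex 488 nm, em 500-530 nm) by laser-scanning cytometer after 24 h compound exposure, several concentrations, at 37 deg C. Cells: HeLa line stably co-expressing Vif and C-terminally eYFP-tagged A3F; MG132 served as positive control.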
Potency means the concentration at half of the fitted maximal effect.

Compound | Potency | max response
CCn1c(O)c(/C=N/N=C/c2ccc(OC)cc2)c2cc(C3=NNC(=O)CC3)ccc21 | active: 6.51 µM | 
CCCC1=[N+](CC(=O)c2ccc(Br)cc2)CCn2cccc21 |  | inactive: -4.77%
Cc1cccc(C=Nc2ccccc2C(N)=O)c1 | inconclusive: 6.27 µM [inhibitor, partial curve] | 
CCOC(=O)c1c(CN(CC)CC)n(-c2ccccc2)c2ccc(O)cc12 |  | inactive: 0.203%
CC(C)CCNC(=O)c1ccc2c(c1)NC(=O)C(CS(=O)(=O)Cc1cccc(Br)c1)N2 (configuration not stated) |  | inactive: 0.102%
CCOc1ccccc1OCC(=O)N/N=C(\C)Cc1ccc(OC)cc1 |  | inactive: -18.5%
COCCNC(=O)C(=O)Nc1ccc2c(c1)N(S(=O)(=O)c1cccs1)CCC2 | inconclusive: 0.559 µM [inhibitor, full curve] | 
Cc1[nH]c2ccccc2c1/C=C/c1cc[n+](C)cc1 | active: 1.58 µM | 
CC(C)(C)C(=O)Nc1sc2c(c1C#N)CCN(Cc1ccccc1)C2 |  | inactive: -17.1%
C/C(=N/NC(N)=S)c1ccc(Br)s1 |  | inactive: 1.12%
CN[C@H]1CCc2cc(OC)c(OC)c(OC)c2-c2ccc(N(C)CC(OC)OC)c(=O)cc21 | inconclusive: 1.98 µM [inhibitor, full curve] | 
COc1cc(Cl)c(C)cc1NC(=O)CN1CCN(C(=O)C2CC2)CC1 |  | inactive: -14.7%
O=C(c1cc([N+](=O)[O-])ccc1N1CCCCC1)N1CCc2ccccc21 | inconclusive: 1.98 µM [inhibitor, full curve, poor fit] | 
Cc1noc(C)c1COc1cccc(C(=O)OC(C)C(=O)Nc2ccc3c(c2)OCO3)c1 (configuration not stated) | inconclusive: 2.5 µM [inhibitor, full curve, poor fit] | 
Cc1ccc(-c2nc(SCCOc3ccccc3C)n3[nH]c(=O)cc3n2)cc1 |  | inactive: 1.28%
COc1ccc2c(c1)c1nc3ccccc3nc1n2Cc1ccc(OC)c(OC)c1 | inconclusive: 29.1 µM [inhibitor, single point] | 
S=C(NCCSCc1ccc(Cl)cc1)Nc1ccccc1 |  | inactive: -0.773%
C/C(=N\Nc1nccnc1Cl)c1ccc(Cl)c(Cl)c1 |  | inactive: 0.009%
COc1ccc(NC(=O)c2sc3nc(-c4cccnc4)ccc3c2N)cc1OC | inconclusive: 29.1 µM [inhibitor, single point] | 
NC(=O)CSc1nc2c(sc3ccccc32)c(=O)n1CCCC(=O)NCC1CCCO1 (configuration not stated) |  | inactive: 3.7%
COc1ccccc1NC(=O)c1oc2ccccc2c1NC(=O)c1cccc(OC)c1OC | inconclusive: 2.31 µM [inhibitor, full curve] | 
CC(=O)Nc1ccc(-c2ccnc3c2CC(C(=O)Nc2cccc(N(C)C)c2)O3)cc1 (configuration not stated) | inconclusive: 11.2 µM [inhibitor, partial curve] | 
CC(C)(C)n1ncc2c(=O)n(CC(=O)NCc3ccc(F)cc3)cnc21 | inconclusive: 7.04 µM [inhibitor, partial curve] | 
COc1cc(OC)c(C2Nc3cccc4cccc(c34)N2)c(OC)c1 |  | inactive: -0.492%

Compound | Potency | max response
S=C(Nc1cccc2ccccc12)NN1CCCCCC1 |  | inactive: 0.0404%
Cc1cc(C(F)(F)F)c2c(N)c(C(=O)Nc3cc(C)on3)sc2n1 |  | inactive: -20.9%
COC(=O)c1ccccc1NC(=O)C1CC(=O)N(c2ccc(OC)cc2)C1 (configuration not stated) |  | inactive: -29%
COc1ccccc1/C=N/NC(=S)Nc1cccnc1 |  | inactive: -4.95%
COc1ccc2oc(=N)c(C(=O)Nc3ccc(F)cc3)cc2c1 |  | inactive: -21%
C=CCSc1nc2ccccc2n1C(=O)/C=C/c1cc(OC)c(OC)c(OC)c1 | inconclusive: 6.27 µM [inhibitor, partial curve] | 
NC(=O)c1ccc(Cn2c(C(=O)c3cc(Cl)c(N)c(Cl)c3)c3ccccc3[n+]2[O-])cc1 | inconclusive: 14 µM [inhibitor, single point] | 
O=C(/C(=C/c1ccc(Cl)cc1)c1nc2ccccc2[nH]1)c1cccs1 | inconclusive: 15.8 µM [inhibitor, single point] | 
Cc1ccc(CNC(=O)Cc2ccc(-n3cccc3)cc2)cc1 | inconclusive: 2.5 µM [inhibitor, full curve] | 
Clc1ccccc1Cn1c(/C=C/c2ccco2)nc2ccccc21 |  | inactive: -8.9%
O=C(O)CCCNc1cc(N2CCN(C(=O)c3ccco3)CC2)c2noc3c2c1C(=O)c1ccccc1-3 | inconclusive: 25 µM [inhibitor, single point] | 
C=CCN1C(=O)C2(NNc3ccccc3O2)c2ccccc21 (configuration not stated) | inconclusive: 14 µM [inhibitor, single point] | 
CSc1nsc(/C=C/Nc2ccc(Cl)cc2)c1C#N | inconclusive: 14 µM [inhibitor, single point] | 
COc1cc(C=C2CCCC(=Cc3ccc(OCC4CO4)c(OC)c3)C2=O)ccc1OCC1CO1 (configuration not stated) | inconclusive: 25 µM [inhibitor, single point] | 
CN(C)CCN(C(=O)/C=C/c1cccs1)c1nc2c(F)cc(F)cc2s1 | inconclusive: 20.6 µM [inhibitor, single point] | 
O=C1CN(C(=O)c2cc(Br)c(Br)s2)c2ccccc2N1 | inconclusive: 7.04 µM [inhibitor, partial curve] | 
O=[N+]([O-])c1ccc(Oc2cccc3cccnc23)c([N+](=O)[O-])c1 | inconclusive: 19.8 µM [inhibitor, single point] | 
C[N+](C)(C)CCC(=O)N1C/C(=C/c2ccccc2)C(=O)/C(=C\c2ccccc2)C1 |  | inactive: -12.6%
COC(=O)C1=C(Nc2ccc(C)cc2)C=C(C)C(C(=O)OC)C1c1cccc(OC)c1 (configuration not stated) |  | inactive: -20.5%
Cc1c(Cl)cccc1-c1ccc(/C=C(\C#N)c2nc3ccccc3[nH]2)o1 | active: 20.6 µM | 
Cc1ccc(NC(=O)c2ccc(NCC3CCCO3)c([N+](=O)[O-])c2)cc1Cl (configuration not stated) | active: 20.6 µM | 
CN1C2CCC1/C(=C/c1cccn1C)C(=O)/C2=C\c1cccn1C | active: 16.4 µM | 
Nc1nc2n[nH]nc2c(=O)[nH]1 | active: 6.51 µM and active: 3.53 µM | 
